From US20240309076A1
These are yes or no findings as the source states them, for the method shown. Some entries that bind do so weakly or less than the wild type.

Chains of the proteins cited; added tags and fusions are not shown. Lines headed by an entry give the natural chain unless they say otherwise; changes in a name come on top. A line that says so, or that is headed by a name, gives the form on record, which may keep a tag or linker.
Tau and AD-associated Tau in brain tissue and brain extracts of patients with tauopathy (AD, PSP, PiD) (P10636, form named): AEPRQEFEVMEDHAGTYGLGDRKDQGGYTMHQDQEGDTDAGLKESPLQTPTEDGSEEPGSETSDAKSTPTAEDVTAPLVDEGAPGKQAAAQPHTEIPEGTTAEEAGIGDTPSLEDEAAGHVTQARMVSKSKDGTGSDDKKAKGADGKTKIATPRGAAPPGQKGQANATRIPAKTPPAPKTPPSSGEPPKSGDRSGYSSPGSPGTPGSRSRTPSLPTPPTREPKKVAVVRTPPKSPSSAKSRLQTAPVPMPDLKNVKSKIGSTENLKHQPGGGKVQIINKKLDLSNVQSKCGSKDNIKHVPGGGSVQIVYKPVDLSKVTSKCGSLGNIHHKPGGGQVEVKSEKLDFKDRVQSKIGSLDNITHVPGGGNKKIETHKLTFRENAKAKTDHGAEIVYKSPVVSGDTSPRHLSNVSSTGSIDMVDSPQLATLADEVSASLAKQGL

Legend:
[1] = molecular target: Tau and AD-associated Tau in brain tissue and brain extracts of patients with tauopathy (AD, PSP, PiD) (human) (UniProt P10636); assay: IHC on human AD brain tissue
[2] = molecular target: Tau and AD-associated Tau in brain tissue and brain extracts of patients with tauopathy (AD, PSP, PiD) (human) (UniProt P10636); assay: IHC on patient brain tissue (AD, PSP, PiD)
[3] = molecular target: Tau and AD-associated Tau in brain tissue and brain extracts of patients with tauopathy (AD, PSP, PiD) (human) (UniProt P10636); assay: immunoprecipitation from human AD brain extracts

Measured: binding

B1: NI-502.4P3 (antibody, V domains shown)
VH: EVQLVQSGAEVKKPGESLKISCKVSGYDFSKYWIGWVRQMPGKGLEWMGLIYPGDSDTRYSPSLEGQVSISADKSISAAYLQFSSLKASDSAMYYCVRKGYSAYLGGWFDPWGQGTLVTVSS
VL: DIQLTQSPDSLAASLGERVTINCRSSQNIFYNSNNKNFLAWYQQKAGQSPKLLIYWASTRESGVPDRFSGSGSGTDFTLTISGLQAGDVAVYFCQQYFTDAPTFGGGTKVEIK
binds: [1] | [2] | [3]
